# Source: the supplement of paper PMC8728848
# This is one part of the list.
# What was measured:
# Assay in all cases: glycan array binding signal (z-score within array); higher = stronger binding
# Conditions in all cases: glycan notation: IUPAC condensed, linker removed
# [1] = target: Gal(a1-6)Glc
# In short: (§1)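 The Consortium for Functional Glycomics database supplied 3228 glycan arrays, of which those lacking an available protein sequence were dropped. The binding signal, a within-array Z-score, was averaged across arrays of the same protein sequence and across linkers. Negative scores can be read as non-binding.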
# [2] = target: Gal(b1-2)Gal
# In short: as §1
# [3] = target: Gal(b1-3)Gal
# In short: as §1
# [4] = target: Gal(b1-3)Gal(b1-4)GlcNAc
# In short: as §1
# [5] = target: Gal(b1-3)GalNAc
# In short: as §1
# [6] = target: Gal(b1-3)GalNAc(a1-3)[Fuc(a1-2)]Gal(b1-4)Glc
# In short: as §1
# [7] = target: Gal(b1-3)GalNAc(a1-3)[Fuc(a1-2)]Gal(b1-4)GlcNAc
# In short: as §1
# [8] = target: Gal(b1-3)GalNAc(b1-3)Gal
# In short: as §1
# [9] = target: Gal(b1-3)GalNAc(b1-3)Gal(a1-4)Gal(b1-4)Glc
# In short: as §1
# [10] = target: Gal(b1-3)GalNAc(b1-4)Gal(b1-4)Glc
# In short: as §1
# [11] = target: Gal(b1-3)GalNAc(b1-4)[Neu5Ac(a2-3)]Gal(b1-4)Glc
# In short: as §1
# [12] = target: Gal(b1-3)GlcNAc
# In short: as §1
# [13] = target: Gal(b1-3)GlcNAc(a1-3)Gal(b1-4)GlcNAc
# In short: as §1
# [14] = target: Gal(b1-3)GlcNAc(a1-6)Gal(b1-4)GlcNAc
# In short: as §1
# [15] = target: Gal(b1-3)GlcNAc(b1-2)Man
# In short: as §1
# [16] = target: Gal(b1-3)GlcNAc(b1-2)Man(a1-3)[Gal(b1-3)GlcNAc(b1-2)Man(a1-6)]Man(b1-4)GlcNAc(b1-4)GlcNAc
# In short: as §1
# [17] = target: Gal(b1-3)GlcNAc(b1-2)Man(a1-3)[Gal(b1-3)GlcNAc(b1-2)Man(a1-6)]Man(b1-4)GlcNAc(b1-4)[Fuc(a1-6)]GlcNAc
# In short: as §1
# [18] = target: Gal(b1-3)GlcNAc(b1-2)Man(a1-3)[GlcNAc(b1-4)][Gal(b1-3)GlcNAc(b1-2)Man(a1-6)]Man(b1-4)GlcNAc(b1-4)GlcNAc
# In short: as §1
# [19] = target: Gal(b1-3)GlcNAc(b1-2)[Gal(b1-3)GlcNAc(b1-6)]Man(a1-6)[Gal(b1-3)GlcNAc(b1-2)Man(a1-3)]Man(b1-4)GlcNAc(b1-4)GlcNAc
# In short: as §1
# [20] = target: Gal(b1-3)GlcNAc(b1-3)Gal(b1-3)GlcNAc
# In short: as §1
# [21] = target: Gal(b1-3)GlcNAc(b1-3)Gal(b1-4)Glc
# In short: as §1
# [22] = target: Gal(b1-3)GlcNAc(b1-3)Gal(b1-4)GlcNAc
# In short: as §1
# [23] = target: Gal(b1-3)GlcNAc(b1-3)Gal(b1-4)GlcNAc(b1-2)Man(a1-3)[Gal(b1-3)GlcNAc(b1-3)Gal(b1-4)GlcNAc(b1-2)Man(a1-6)]Man(b1-4)GlcNAc(b1-4)GlcNAc
# In short: as §1
# [24] = target: Gal(b1-3)GlcNAc(b1-3)Gal(b1-4)GlcNAc(b1-2)[Gal(b1-3)GlcNAc(b1-3)Gal(b1-4)GlcNAc(b1-6)]Man(a1-6)[Gal(b1-3)GlcNAc(b1-3)Gal(b1-4)GlcNAc(b1-2)Man(a1-3)]Man(b1-4)GlcNAc(b1-4)[Fuc(a1-6)]GlcNAc
# In short: as §1
# [25] = target: Gal(b1-3)GlcNAc(b1-3)Gal(b1-4)GlcNAc(b1-3)Gal(b1-4)GlcNAc(b1-2)[Gal(b1-3)GlcNAc(b1-3)Gal(b1-4)GlcNAc(b1-3)Gal(b1-4)GlcNAc(b1-6)]Man(a1-6)[Gal(b1-3)GlcNAc(b1-3)Gal(b1-4)GlcNAc(b1-3)Gal(b1-4)GlcNAc(b1-2)Man(a1-3)]Man(b1-4)GlcNAc(b1-4)[Fuc(a1-6)]GlcNAc
# In short: as §1
# [26] = target: Gal(b1-3)GlcNAc(b1-3)Gal(b1-4)GlcNAc(b1-6)[Gal(b1-3)GlcNAc(b1-3)]Gal(b1-4)Glc
# In short: as §1
# [27] = target: Gal(b1-3)GlcNAc(b1-3)Gal(b1-4)[Fuc(a1-3)]GlcNAc
# In short: as §1
# [28] = target: Gal(b1-3)GlcNAc(b1-3)Gal(b1-4)[Fuc(a1-3)]GlcNAc(b1-6)[Gal(b1-3)GlcNAc(b1-3)]Gal(b1-4)Glc
# In short: as §1
# [29] = target: Gal(b1-3)GlcNAc(b1-3)GalNAc
# In short: as §1
# [30] = target: Gal(b1-3)GlcNAc(b1-6)Gal(b1-4)GlcNAc
# In short: as §1
# [31] = target: Gal(b1-3)GlcNAc(b1-6)GalNAc
# In short: as §1
# [32] = target: Gal(b1-3)GlcNAc(b1-6)[Gal(b1-3)]GalNAc
# In short: as §1
# [33] = target: Gal(b1-3)GlcNAc6S
# In short: as §1
# [34] = target: Gal(b1-3)[Fuc(a1-4)]GlcNAc
# In short: as §1
# [35] = target: Gal(b1-3)[Fuc(a1-4)]GlcNAc(b1-2)Man
# In short: as §1
# [36] = target: Gal(b1-3)[Fuc(a1-4)]GlcNAc(b1-2)Man(a1-3)[Gal(b1-3)[Fuc(a1-4)]GlcNAc(b1-2)Man(a1-6)]Man(b1-4)GlcNAc(b1-4)[Fuc(a1-6)]GlcNAc
# In short: as §1
# [37] = target: Gal(b1-3)[Fuc(a1-4)]GlcNAc(b1-3)Gal(b1-3)[Fuc(a1-4)]GlcNAc
# In short: as §1
# [38] = target: Gal(b1-3)[Fuc(a1-4)]GlcNAc(b1-3)Gal(b1-4)[Fuc(a1-3)]GlcNAc
# In short: as §1
# [39] = target: Gal(b1-3)[Fuc(a1-4)]GlcNAc(b1-6)GalNAc
# In short: as §1
# [40] = target: Gal(b1-3)[GlcNAc(b1-6)]GalNAc
# In short: as §1
# [41] = target: Gal(b1-3)[Neu5Ac(a2-6)]GalNAc
# In short: as §1
# [42] = target: Gal(b1-3)[Neu5Ac(a2-6)]GlcNAc(b1-4)Gal(b1-4)Glc
# In short: as §1
# [43] = target: Gal(b1-3)[Neu5Ac(b2-6)]GalNAc
# In short: as §1
# [44] = target: Gal(b1-4)Gal
# In short: as §1
# [45] = target: Gal(b1-4)GalNAc(a1-3)[Fuc(a1-2)]Gal(b1-4)GlcNAc
# In short: as §1
binder,measurement,setting,value
SP15308B-bot-339-22-339 (Bacteroides ovatus) (protein) NEWEDEQYEQYVSFKAPIASGSDGVTTIYVRYKDNGKVTYQLPIIVSGSTVNSQDRDIHIAVDKDTLKTLNIERFSLYRPELWYTEMEEDKYEFPETVHIPAGSCVELLNIDFNLQDIDMLEKWVLPLTIVDDGSYAYQSHPRKNYAKALLKVVPFNNYSGSYTASSMKVYTYINGKPDTNARTTDKRTGYVVDNNSIFFYAGLINEDMDKDMRKKYKINVHFKEDGTLDMKQDDPSNEMEFELIGTPTYSSTSVMDATRPYLERRYVQIMFEYDFQDFTYGGSGTEVIPIKYRVAGSMTLLRNINTQIPDEDQQIEW,glycan array binding signal (z-score),[1],-0.476
same,glycan array binding signal (z-score),[2],0.097
same,glycan array binding signal (z-score),[3],-0.08
same,glycan array binding signal (z-score),[4],-0.293
same,glycan array binding signal (z-score),[5],-0.35
same,glycan array binding signal (z-score),[6],-0.168
same,glycan array binding signal (z-score),[7],-0.573
same,glycan array binding signal (z-score),[8],-0.145
same,glycan array binding signal (z-score),[9],-0.273
same,glycan array binding signal (z-score),[10],-0.02
same,glycan array binding signal (z-score),[11],0.325
same,glycan array binding signal (z-score),[12],-0.25
same,glycan array binding signal (z-score),[13],-0.595
same,glycan array binding signal (z-score),[14],-0.411
same,glycan array binding signal (z-score),[15],0.152
same,glycan array binding signal (z-score),[16],-0.088
same,glycan array binding signal (z-score),[17],-0.235
same,glycan array binding signal (z-score),[18],-0.259
same,glycan array binding signal (z-score),[19],0.629
same,glycan array binding signal (z-score),[20],-0.071
same,glycan array binding signal (z-score),[21],0.179
same,glycan array binding signal (z-score),[22],-0.169
same,glycan array binding signal (z-score),[23],0.178
same,glycan array binding signal (z-score),[24],1.47
same,glycan array binding signal (z-score),[25],-0.031
same,glycan array binding signal (z-score),[26],-0.129
same,glycan array binding signal (z-score),[27],-0.548
same,glycan array binding signal (z-score),[28],-0.06
same,glycan array binding signal (z-score),[29],0.432
same,glycan array binding signal (z-score),[30],0.319
same,glycan array binding signal (z-score),[31],-0.027
same,glycan array binding signal (z-score),[32],0.021
same,glycan array binding signal (z-score),[33],-0.22
same,glycan array binding signal (z-score),[34],-0.425
same,glycan array binding signal (z-score),[35],0.122
same,glycan array binding signal (z-score),[36],0.086
same,glycan array binding signal (z-score),[37],-0.36
same,glycan array binding signal (z-score),[38],0.68
same,glycan array binding signal (z-score),[39],-0.068
same,glycan array binding signal (z-score),[40],-0.271
same,glycan array binding signal (z-score),[41],-0.403
same,glycan array binding signal (z-score),[42],0.133
same,glycan array binding signal (z-score),[43],0.583
same,glycan array binding signal (z-score),[44],-0.471
same,glycan array binding signal (z-score),[45],-0.159

# Two records picked at random from those above:
binder,measurement,setting,value
SP15308B-bot-339-22-339 (Bacteroides ovatus) (protein) NEWEDEQYEQYVSFKAPIASGSDGVTTIYVRYKDNGKVTYQLPIIVSGSTVNSQDRDIHIAVDKDTLKTLNIERFSLYRPELWYTEMEEDKYEFPETVHIPAGSCVELLNIDFNLQDIDMLEKWVLPLTIVDDGSYAYQSHPRKNYAKALLKVVPFNNYSGSYTASSMKVYTYINGKPDTNARTTDKRTGYVVDNNSIFFYAGLINEDMDKDMRKKYKINVHFKEDGTLDMKQDDPSNEMEFELIGTPTYSSTSVMDATRPYLERRYVQIMFEYDFQDFTYGGSGTEVIPIKYRVAGSMTLLRNINTQIPDEDQQIEW,glycan array binding signal (z-score),[15],0.152
same,glycan array binding signal (z-score),[5],-0.35
